Paper PMC12681845
Results are given in words; binding and its absence hold for the method and conditions named. Binding seen in cells or lysates may run through a third protein. Here binding means that the protein was enriched with, or labelled near, the bait; the list need not be complete.

Amino acid sequences for entries named in this document (tags omitted).
UniProt Q8N6T7: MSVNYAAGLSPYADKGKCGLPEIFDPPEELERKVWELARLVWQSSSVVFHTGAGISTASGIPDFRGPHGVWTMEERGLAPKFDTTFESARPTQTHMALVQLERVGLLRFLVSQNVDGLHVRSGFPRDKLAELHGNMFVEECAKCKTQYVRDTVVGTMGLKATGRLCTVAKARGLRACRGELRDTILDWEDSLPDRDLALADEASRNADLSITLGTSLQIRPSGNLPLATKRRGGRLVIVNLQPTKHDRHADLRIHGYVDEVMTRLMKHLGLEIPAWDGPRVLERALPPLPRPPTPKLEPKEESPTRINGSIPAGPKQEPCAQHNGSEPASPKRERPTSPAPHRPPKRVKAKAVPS

Molecular target: NAD-dependent protein deacylase sirtuin-6 (human (endogenous in HCT116)) (UniProt Q8N6T7)
Experiment: affinity purification with mass spectrometry; Co-IP of SIRT6; eluates digested in-gel with trypsin, LC-MS/MS (Novogene); cell line not stated

binding	Binder
binds	Transcription factor A, mitochondrial (protein, UniProt Q00059 43-246) SSVLASCPKKPVSSYLRFSKEQLPIFKAQNPDAKTTELIRRIAQRWRELPDSKKKIYQDAYRAEWQVYKEEISRFKEQLTPSQIMSLEKEIMDKHLKRKAMTKKKELTLLGKPKRPRSAYNVYVAERFQEAKGDSPQEKLKTVKENWKNLSDSEKELYIQHAKEDETRYHNEMKSWEEQMIEVGRKDLLRRTIKKQRKYGAEEC
binds	Hepatocyte nuclear factor 3-alpha (protein, UniProt P55317 1-472) MLGTVKMEGHETSDWNSYYADTQEAYSSVPVSNMNSGLGSMNSMNTYMTMNTMTTSGNMTPASFNMSYANPGLGAGLSPGAVAGMPGGSAGAMNSMTAAGVTAMGTALSPSGMGAMGAQQAASMNGLGPYAAAMNPCMSPMAYAPSNLGRSRAGGGGDAKTFKRSYPHAKPPYSYISLITMAIQQAPSKMLTLSEIYQWIMDLFPYYRQNQQRWQNSIRHSLSFNDCFVKVARSPDKPGKGSYWTLHPDSGNMFENGCYLRRQKRFKCEKQPGAGGGGGSGSGGSGAKGGPESRKDPSGASNPSADSPLHRGVHGKTGQLEGAPAPGPAASPQTLDHSGATATGGASELKTPASSTAPPISSGPGALASVPASHPAHGLAPHESQLHLKGDPHYSFNHPFSINNLMSSSEQQHKLDFKAYEQALQYSPYGSTLPASLPLGSASVTTRSPIEPSALEPAYYQGVYSRPVLNTS
